{"source": "patent US7348404", "about": "(dated 2008)", "conditions_in_all_cases": "whole synthesis, scale of the general procedure 500 mg resin", "key": {"[1]": {"assay": "general procedure: Fmoc solid-phase peptide synthesis in flow; Fmoc-Lys(Boc) PepSyn KA resin (0.086 mmol/g); PepSyn K; NovaSyn TG; Fmoc-amino acid Pfp esters with Dhbt-OH; HObt esters by DIC"}, "[2]": {"assay": "general procedure: Fmoc solid-phase peptide synthesis in flow; Fmoc-Lys(Boc) PepSyn KA; Fmoc-amino acid Pfp esters with Dhbt-OH; HObt esters by DIC"}, "[3]": {"assay": "general procedure: Fmoc solid-phase peptide synthesis in flow; PepSyn K; Fmoc-amino acid Pfp esters with Dhbt-OH; HObt esters by DIC"}, "[4]": {"assay": "general procedure: Fmoc solid-phase peptide synthesis in flow; PepSyn KA; Fmoc-amino acid Pfp esters with Dhbt-OH; HObt esters by DIC"}}}
{"substance": "H-Ala10-Lys3-OH", "values": [{"measurement": "crude HPLC purity", "setting": "[1]", "value": "better than 98%"}, {"measurement": "crude yield", "setting": "[2]", "value": 91.0, "unit": "%"}]}
{"substance": "H-Ala10-Lys6-OH", "values": [{"measurement": "crude HPLC purity", "setting": "[1]", "value": "better than 98%"}, {"measurement": "crude yield", "setting": "[2]", "value": 90.9, "unit": "%"}]}
{"substance": "H-Ala10-Lys-OH", "values": [{"measurement": "difficulty met", "setting": "[3]; run 2", "value": "target peptide H-Alan-Lys-OH (n=10) as well as deletion peptides corresponding to n=9, 8, 7, and 6"}, {"measurement": "difficulty met", "setting": "[3]; run 3", "value": "target peptide H-Alan-Lys-OH (n=10) as well as deletion peptides corresponding to n=9, 8, 7, and 6"}, {"measurement": "difficulty met", "setting": "[3]; run 4", "value": "target peptide H-Alan-Lys-OH (n=10) as well as deletion peptides corresponding to n=9, 8, 7, and 6"}, {"measurement": "difficulty met", "setting": "[2]; run 1", "value": "complicated mixture comprising the target peptide (n=10) as well as deletion peptides"}]}
{"substance": "H-Ala20-Lys3-OH", "values": [{"measurement": "difficulty met", "setting": "[4]", "value": "target peptide H-Alan-Lys3-OH (n=20) as well as deletion peptides corresponding to n=19, 18, 17, and 16"}]}
{"substance": "H-Ala20-Lys6-OH", "values": [{"measurement": "crude HPLC purity", "setting": "[1]", "value": "better than 98%"}, {"measurement": "crude yield", "setting": "[2]", "value": 91.4, "unit": "%"}]}
{"substance": "H-Ala20-Lys-(Gly-Lys)3-OH", "values": [{"measurement": "crude yield", "setting": "[1]", "value": 97, "unit": "%"}, {"measurement": "crude HPLC purity", "setting": "[2]", "value": "better than 98% pure"}]}
{"substance": "H-Val-Asn-Val-Asn-Val-Gln-Val-Gln-Val-Asp-Lys6-OH", "values": [{"measurement": "crude yield", "setting": "[1]", "value": 100, "unit": "%"}, {"measurement": "crude HPLC purity", "setting": "[2]", "value": "better than 90% pure"}]}
